Data from article PMC8583962.

By UniProt entry, the sequences of proteins in these tests, tags left out.
UniProt Q9NWT6: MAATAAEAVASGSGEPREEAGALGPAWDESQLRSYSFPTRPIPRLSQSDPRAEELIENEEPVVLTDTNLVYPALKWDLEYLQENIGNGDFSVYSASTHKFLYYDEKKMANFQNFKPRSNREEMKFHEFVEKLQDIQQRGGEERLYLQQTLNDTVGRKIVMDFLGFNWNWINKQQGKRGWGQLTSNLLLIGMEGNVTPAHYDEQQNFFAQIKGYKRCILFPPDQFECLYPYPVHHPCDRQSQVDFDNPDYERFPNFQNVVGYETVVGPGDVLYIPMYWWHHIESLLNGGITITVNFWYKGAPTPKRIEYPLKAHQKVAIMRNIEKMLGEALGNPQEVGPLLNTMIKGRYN

How the values were obtained:
Test in all cases: affinity purification with mass spectrometry; IP of NAA10-V5 or NAA15-V5 (anti-V5) or endogenous NAA15 from lysates of HEK293, HeLa or HAP1 cells on Dynabeads Protein G; IPH buffer (50 mM Tris-HCl pH 8.0, 150 mM NaCl, 5 mM EDTA, 0.5% NP-40), 4 °C, three washes; FASP or in-solution digestion; LC/MS, MaxQuant iBAQ
NAA15-V5 (human) = biological target: T1, NAA15-V5 (human) (UniProt Q9BXJ9)
T1 sequence: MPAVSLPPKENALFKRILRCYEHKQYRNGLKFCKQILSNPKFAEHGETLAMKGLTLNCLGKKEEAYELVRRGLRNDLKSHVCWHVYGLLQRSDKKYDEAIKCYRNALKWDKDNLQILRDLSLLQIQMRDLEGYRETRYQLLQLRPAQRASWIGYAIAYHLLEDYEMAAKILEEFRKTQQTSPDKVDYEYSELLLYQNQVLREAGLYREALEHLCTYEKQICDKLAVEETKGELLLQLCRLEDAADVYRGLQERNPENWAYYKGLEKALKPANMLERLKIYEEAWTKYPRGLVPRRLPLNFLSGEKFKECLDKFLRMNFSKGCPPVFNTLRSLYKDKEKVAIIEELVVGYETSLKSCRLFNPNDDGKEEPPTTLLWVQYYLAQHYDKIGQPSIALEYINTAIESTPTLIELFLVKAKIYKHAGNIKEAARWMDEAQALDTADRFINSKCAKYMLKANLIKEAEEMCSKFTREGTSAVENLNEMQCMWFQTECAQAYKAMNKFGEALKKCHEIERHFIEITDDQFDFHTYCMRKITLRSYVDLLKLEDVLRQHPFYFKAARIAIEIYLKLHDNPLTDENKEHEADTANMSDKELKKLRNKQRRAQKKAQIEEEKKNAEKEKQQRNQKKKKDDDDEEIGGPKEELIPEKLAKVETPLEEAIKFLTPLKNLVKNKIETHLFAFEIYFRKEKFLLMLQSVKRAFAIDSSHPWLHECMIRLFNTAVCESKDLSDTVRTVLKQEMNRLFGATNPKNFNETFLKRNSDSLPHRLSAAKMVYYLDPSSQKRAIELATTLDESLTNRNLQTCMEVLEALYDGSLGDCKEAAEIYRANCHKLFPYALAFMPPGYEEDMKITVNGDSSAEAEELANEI

NAA15-L814P-V5 (human) = biological target: T2, NAA15-L814P-V5 (human) (UniProt Q9BXJ9)
T2 sequence: T1 sequence with L814P

[1] = biological target: T3, NAA15 (endogenous) (human (endogenous in HEK293, HeLa, HAP1)) (UniProt Q9BXJ9)
T3 sequence: T1 sequence

NAA15-T406Y-V5 (human) = biological target: T4, NAA15-T406Y-V5 (human) (UniProt Q9BXJ9)
T4 sequence: T1 sequence with T406Y

Measured: binding

factor inhibiting HIF-1α (FIH) (from UniProt Q9NWT6 1-349) (enzyme)
no binding: NAA15-V5 (human) | NAA15-L814P-V5 (human) | [1] | NAA15-T406Y-V5 (human)

Residue numbers refer to the chain shown, from its start. Results are given in words; binding and its absence hold for the method and conditions named. In cells and extracts the contact can be indirect. These calls come from enrichment with a bait or labelling near it, and not all partners need be listed. No binding means not detected with the bait. For some of these results: Tags and fused reporters may be left off the sequences shown.
